For assay [1], the target named is T1, Nup85 (human (endogenous in HeLa)) (UniProt Q9BW27).
T1 sequence: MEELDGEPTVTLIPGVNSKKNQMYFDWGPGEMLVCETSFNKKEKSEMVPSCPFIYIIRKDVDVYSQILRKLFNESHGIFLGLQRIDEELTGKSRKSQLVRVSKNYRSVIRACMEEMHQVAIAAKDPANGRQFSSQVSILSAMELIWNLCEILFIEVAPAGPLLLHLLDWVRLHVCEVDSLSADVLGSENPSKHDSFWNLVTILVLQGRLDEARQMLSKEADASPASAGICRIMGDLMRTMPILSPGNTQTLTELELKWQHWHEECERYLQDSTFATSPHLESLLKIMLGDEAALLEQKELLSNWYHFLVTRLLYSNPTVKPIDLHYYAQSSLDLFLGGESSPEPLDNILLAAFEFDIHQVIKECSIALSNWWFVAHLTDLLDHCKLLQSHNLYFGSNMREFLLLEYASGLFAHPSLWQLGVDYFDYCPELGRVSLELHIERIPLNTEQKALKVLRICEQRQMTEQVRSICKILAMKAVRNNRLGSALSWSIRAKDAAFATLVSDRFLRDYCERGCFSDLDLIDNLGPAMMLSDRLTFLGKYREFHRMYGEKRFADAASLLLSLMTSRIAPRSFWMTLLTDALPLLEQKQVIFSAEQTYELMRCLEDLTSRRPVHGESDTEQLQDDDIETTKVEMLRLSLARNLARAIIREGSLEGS
As to the kind of experiment: cryo-EM structure.

The target in assay [2] is T2, NDC1 (human (endogenous in HeLa)) (UniProt Q9BTX1).
T2 sequence: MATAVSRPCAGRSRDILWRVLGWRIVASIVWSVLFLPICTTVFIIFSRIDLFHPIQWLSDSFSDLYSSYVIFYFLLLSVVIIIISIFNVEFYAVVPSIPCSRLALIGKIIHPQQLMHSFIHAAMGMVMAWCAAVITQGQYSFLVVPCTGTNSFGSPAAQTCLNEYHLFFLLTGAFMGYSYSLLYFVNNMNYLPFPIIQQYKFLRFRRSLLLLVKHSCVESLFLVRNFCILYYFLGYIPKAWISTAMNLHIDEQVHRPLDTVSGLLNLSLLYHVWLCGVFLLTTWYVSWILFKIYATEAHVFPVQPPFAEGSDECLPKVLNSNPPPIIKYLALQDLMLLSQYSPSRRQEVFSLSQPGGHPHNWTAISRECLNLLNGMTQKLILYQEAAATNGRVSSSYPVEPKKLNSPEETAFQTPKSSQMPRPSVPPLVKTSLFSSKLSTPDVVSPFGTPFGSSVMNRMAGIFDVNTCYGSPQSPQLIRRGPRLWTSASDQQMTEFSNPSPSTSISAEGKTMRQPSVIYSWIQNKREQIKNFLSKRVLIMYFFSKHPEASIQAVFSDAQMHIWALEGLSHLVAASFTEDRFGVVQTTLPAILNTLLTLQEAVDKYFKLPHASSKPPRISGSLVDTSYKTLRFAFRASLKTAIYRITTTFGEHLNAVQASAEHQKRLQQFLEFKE
As to the kind of experiment: cryo-EM structure.

Results are given in words; binding and its absence hold for the method and conditions named. Some results given as binding are weak or reduced against the parent protein; the word gives no strength.

B1: Nup43 (protein, UniProt Q8NFH3 1-380)
chain: MEEIYAKFVSQKISKTRWRPLPPGSLQTAETFATGSWDNEENYISLWSIGDFGNLDSDGGFEGDHQLLCDIRHHGDVMDLQFFDQERIVAASSTGCVTVFLHHPNNQTLSVNQQWTTAHYHTGPGSPSYSSAPCTGVVCNNPEIVTVGEDGRINLFRADHKEAVRTIDNADSSTLHAVTFLRTPEILTVNSIGQLKIWDFRQQGNEPSQILSLTGDRVPLHCVDRHPNQQHVVATGGQDGMLSIWDVRQGTMPVSLLKAHEAEMWEVHFHPSNPEHLFTCSEDGSLWHWDASTDVPEKSSLFHQGGRSSTFLSHSISNQANVHQSVISSWLSTDPAKDRIEITSLLPSRSLSVNTLDVLGPCLVCGTDAEAIYVTRHLFS
Consider B1, for which the binding entry in assay [1] is “binds”.

B2: Aladin (protein, UniProt Q9NRG9 1-546)
chain: MCSLGLFPPPPPRGQVTLYEHNNELVTGSSYESPPPDFRGQWINLPVLQLTKDPLKTPGRLDHGTRTAFIHHREQVWKRCINIWRDVGLFGVLNEIANSEEEVFEWVKTASGWALALCRWASSLHGSLFPHLSLRSEDLIAEFAQVTNWSSCCLRVFAWHPHTNKFAVALLDDSVRVYNASSTIVPSLKHRLQRNVASLAWKPLSASVLAVACQSCILIWTLDPTSLSTRPSSGCAQVLSHPGHTPVTSLAWAPSGGRLLSASPVDAAIRVWDVSTETCVPLPWFRGGGVTNLLWSPDGSKILATTPSAVFRVWEAQMWTCERWPTLSGRCQTGCWSPDGSRLLFTVLGEPLIYSLSFPERCGEGKGCVGGAKSATIVADLSETTIQTPDGEERLGGEAHSMVWDPSGERLAVLMKGKPRVQDGKPVILLFRTRNSPVFELLPCGIIQGEPGAQPQLITFHPSFNKGALLSVGWSTGRIAHIPLYFVNAQFPRFSPVLGRAQEPPAGGGGSIHDLPLFTETSPTSAPWDPLPGPPPVLPHSPHSHL
On to B2, for which the binding result in assay [2] was “binds”.

(Values after publication doi:10.1101/2021.10.26.465776.)
